The experiment concerns the target EBNA3C expressed in EBV-transformed lymphoblastoid cell lines LCL1 and LCL2 (Epstein-Barr virus) (UniProt P03204). Kind of experiment: affinity purification with mass spectrometry.

Protein sequences, listed by entry. Tags and fused reporters are not part of them.
UniProt P03204: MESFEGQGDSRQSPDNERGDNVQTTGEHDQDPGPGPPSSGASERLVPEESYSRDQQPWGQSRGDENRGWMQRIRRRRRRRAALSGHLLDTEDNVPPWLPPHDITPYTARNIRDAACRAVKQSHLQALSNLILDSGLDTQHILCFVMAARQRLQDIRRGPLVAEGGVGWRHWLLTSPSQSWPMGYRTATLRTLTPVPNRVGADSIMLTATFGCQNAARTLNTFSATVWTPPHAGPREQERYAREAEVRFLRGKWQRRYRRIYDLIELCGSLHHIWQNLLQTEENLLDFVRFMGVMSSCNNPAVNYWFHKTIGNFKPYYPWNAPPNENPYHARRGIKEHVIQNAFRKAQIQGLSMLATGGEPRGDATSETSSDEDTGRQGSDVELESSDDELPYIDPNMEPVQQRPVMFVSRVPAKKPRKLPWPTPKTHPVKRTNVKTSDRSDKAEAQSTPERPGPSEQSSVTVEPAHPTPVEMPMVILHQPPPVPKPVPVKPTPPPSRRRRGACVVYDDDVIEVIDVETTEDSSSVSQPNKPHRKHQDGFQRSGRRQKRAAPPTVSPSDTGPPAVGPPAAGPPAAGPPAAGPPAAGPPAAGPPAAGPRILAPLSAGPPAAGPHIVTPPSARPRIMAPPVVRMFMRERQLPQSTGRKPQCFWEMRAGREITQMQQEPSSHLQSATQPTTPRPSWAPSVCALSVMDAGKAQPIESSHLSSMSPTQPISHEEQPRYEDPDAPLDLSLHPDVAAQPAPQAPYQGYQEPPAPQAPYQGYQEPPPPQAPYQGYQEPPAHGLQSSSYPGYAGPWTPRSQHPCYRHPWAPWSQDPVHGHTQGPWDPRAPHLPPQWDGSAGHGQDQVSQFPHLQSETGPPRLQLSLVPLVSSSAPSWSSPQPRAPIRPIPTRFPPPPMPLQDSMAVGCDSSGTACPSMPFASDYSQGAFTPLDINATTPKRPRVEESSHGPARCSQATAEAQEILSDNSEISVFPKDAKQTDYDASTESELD

Results are given in words; binding and its absence hold for the method and conditions named. In cells and extracts the contact can be indirect. A yes stands for co-enrichment or nearness to the bait. Other partners may have been found.

B1: endogenous IRF4 (protein, UniProt Q15306 1-451)
chain: MNLEGGGRGGEFGMSAVSCGNGKLRQWLIDQIDSGKYPGLVWENEEKSIFRIPWKHAGKQDYNREEDAALFKAWALFKGKFREGIDKPDPPTWKTRLRCALNKSNDFEELVERSQLDISDPYKVYRIVPEGAKKGAKQLTLEDPQMSMSHPYTMTTPYPSLPAQQVHNYMMPPLDRSWRDYVPDQPHPEIPYQCPMTFGPRGHHWQGPACENGCQVTGTFYACAPPESQAPGVPTEPSIRSAEALAFSDCRLHICLYYREILVKELTTSSPEGCRISHGHTYDASNLDQVLFPYPEDNGQRKNIEKLLSHLERGVVLWMAPDGLYAKRLCQSRIYWDGPLALCNDRPNKLERDQTCKLFDTQQFLSELQAFAHHGRSLPRFQVTLCFGEEFPDPQRQRKLITAHVEPLLARQLYYFAQQNSGHFLRGYDLPEHISNPEDYHRSIRHSSIQE
In the case of B1, the binding result was “binds”.

B2: endogenous IRF8 (protein, UniProt Q02556 1-426)
chain: MCDRNGGRRLRQWLIEQIDSSMYPGLIWENEEKSMFRIPWKHAGKQDYNQEVDASIFKAWAVFKGKFKEGDKAEPATWKTRLRCALNKSPDFEEVTDRSQLDISEPYKVYRIVPEEEQKCKLGVATAGCVNEVTEMECGRSEIDELIKEPSVDDYMGMIKRSPSPPEACRSQLLPDWWAQQPSTGVPLVTGYTTYDAHHSAFSQMVISFYYGGKLVGQATTTCPEGCRLSLSQPGLPGTKLYGPEGLELVRFPPADAIPSERQRQVTRKLFGHLERGVLLHSSRQGVFVKRLCQGRVFCSGNAVVCKGRPNKLERDEVVQVFDTSQFFRELQQFYNSQGRLPDGRVVLCFGEEFPDMAPLRSKLILVQIEQLYVRQLAEEAGKSCGAGSVMQAPEEPPPDQVFRMFPDICASHQRSFFRENQQITV
Consider B2, for which the binding result is listed as “binds”.

For the origin of these results see publication PMC3642079.
